# Data reported in the supplement of paper PMC8728848.
# The other results are listed elsewhere or left out.
# Legend:
# Assay in all cases: glycan array binding signal (z-score within array); higher = stronger binding
# Details in all cases: glycan notation: IUPAC condensed, linker removed
# Gal3S6S(b1-4)GlcNAc6S = target: Gal3S6S(b1-4)GlcNAc6S
# Summary of the method: (§1)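 Negative Z-scores can be read as non-binding. The Z-score is calculated within each array and then averaged across arrays of one protein sequence at different concentrations or buffers and across linkers. Arrays, 3228 in all, were curated from the Consortium for Functional Glycomics database and kept only where the protein sequence was available.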
# Gal4S(b1-4)GlcNAc = target: Gal4S(b1-4)GlcNAc
# Summary of the method: as §1
# Gal4S6S(b1-4)GlcNAc = target: Gal4S6S(b1-4)GlcNAc
# Summary of the method: as §1
# Gal6S(b1-4)Glc = target: Gal6S(b1-4)Glc
# Summary of the method: as §1
# Gal6S(b1-4)Glc6S = target: Gal6S(b1-4)Glc6S
# Summary of the method: as §1
# Gal6S(b1-4)GlcNAc = target: Gal6S(b1-4)GlcNAc
# Summary of the method: as §1
# Gal6S(b1-4)GlcNAc6S = target: Gal6S(b1-4)GlcNAc6S
# Summary of the method: as §1
# GalNAc(a1-3)Gal = target: GalNAc(a1-3)Gal
# Summary of the method: as §1
# GalNAc(a1-3)GalNAc = target: GalNAc(a1-3)GalNAc
# Summary of the method: as §1
# GalNAc(b1-3)Gal = target: GalNAc(b1-3)Gal
# Summary of the method: as §1
# [1] = target: GalNAc(b1-3)Gal(a1-4)Gal(b1-4)GlcNAc
# Summary of the method: as §1
# [2] = target: GalNAc(b1-3)Gal(a1-4)Gal(b1-4)GlcNAc(b1-3)Gal(b1-4)Glc
# Summary of the method: as §1
# GalNAc(b1-3)GalNAc = target: GalNAc(b1-3)GalNAc
# Summary of the method: as §1
# GalNAc(b1-4)GlcNAc = target: GalNAc(b1-4)GlcNAc
# Summary of the method: as §1
# [3] = target: GalNAc(b1-4)GlcNAc(b1-2)Man(a1-3)[GalNAc(b1-4)GlcNAc(b1-2)Man(a1-6)]Man(b1-4)GlcNAc(b1-4)GlcNAc
# Summary of the method: as §1
# Glc(a1-4)Glc = target: Glc(a1-4)Glc
# Summary of the method: as §1
# Glc(a1-6)Glc(a1-6)Glc = target: Glc(a1-6)Glc(a1-6)Glc
# Summary of the method: as §1
# Glc(b1-4)Glc = target: Glc(b1-4)Glc
# Summary of the method: as §1
# Glc(b1-6)Glc = target: Glc(b1-6)Glc
# Summary of the method: as §1
# GlcA(b1-3)Gal = target: GlcA(b1-3)Gal
# Summary of the method: as §1
# GlcA(b1-3)GlcNAc = target: GlcA(b1-3)GlcNAc
# Summary of the method: as §1
# GlcA(b1-6)Gal = target: GlcA(b1-6)Gal
# Summary of the method: as §1
# [4] = target: GlcNAc(a1-3)Gal(b1-4)GlcNAc
# Summary of the method: as §1
# [5] = target: GlcNAc(a1-4)Gal(b1-3)GlcNAc
# Summary of the method: as §1
# [6] = target: GlcNAc(a1-4)Gal(b1-4)GalNAc
# Summary of the method: as §1
# [7] = target: GlcNAc(a1-4)Gal(b1-4)GlcNAc
# Summary of the method: as §1
# [8] = target: GlcNAc(a1-4)Gal(b1-4)GlcNAc(b1-3)Gal(b1-4)Glc
# Summary of the method: as §1
# [9] = target: GlcNAc(a1-4)Gal(b1-4)GlcNAc(b1-3)Gal(b1-4)GlcNAc
# Summary of the method: as §1
# [10] = target: GlcNAc(a1-4)Gal(b1-4)GlcNAc(b1-3)Gal(b1-4)GlcNAc(b1-3)Gal(b1-4)GlcNAc
# Summary of the method: as §1
# [11] = target: GlcNAc(a1-4)Gal(b1-4)GlcNAc(b1-3)Gal(b1-4)[Fuc(a1-3)]GlcNAc(b1-3)Gal(b1-4)[Fuc(a1-3)]GlcNAc
# Summary of the method: as §1
# [12] = target: GlcNAc(a1-6)Gal(b1-4)GlcNAc
# Summary of the method: as §1
# [13] = target: GlcNAc(b1-2)Gal(b1-3)GalNAc
# Summary of the method: as §1
# [14] = target: GlcNAc(b1-2)Man(a1-3)[GlcNAc(b1-2)Man(a1-6)]Man(b1-4)GlcNAc(b1-4)GlcNAc
# Summary of the method: as §1
# [15] = target: GlcNAc(b1-2)Man(a1-3)[GlcNAc(b1-2)Man(a1-6)]Man(b1-4)GlcNAc(b1-4)[Fuc(a1-6)]GlcNAc
# Summary of the method: as §1
# GlcNAc(b1-3)Gal = target: GlcNAc(b1-3)Gal
# Summary of the method: as §1
# [16] = target: GlcNAc(b1-3)Gal(b1-3)GalNAc
# Summary of the method: as §1
# GlcNAc(b1-3)Gal(b1-4)Glc = target: GlcNAc(b1-3)Gal(b1-4)Glc
# Summary of the method: as §1
binder,measurement,setting,value
"4F2hc (Homo sapiens), P08195 (protein) WWHTGALYRIGDLQAFQGHGAGNLAGLKGRLDYLSSLKVKGLVLGPIHKNQKDDVAQTDLLQIDPNFGSKEDFDSLLQSAKKKSIRVILDLTPNYRGENSWFSTQVDTVATKVKDALEFWLQAGVDGFQVRDIENLKDASSFLAEWQNITKGFSEDRLLIAGTNSSDLQQILSLLESNKDLLLTSSYLSDSGSTGEHTKSLVTQYLNATGNRWCSWSLSQARLLTSFLPAQLLRLYQLMLFTLPGTPVFSYGDEIGLDAAALPGQPMEAPVMLWDESSFPDIPGAVSANMTVKGQSEDPGSLLSLFRRLSDQRSKERSLLHGDFHAFSAGPGLFSYIRHWDQNERFLVVLNFGDVGLSAGLQASDLPASASLPAKADLLLSTQPGREEGSPLELERLKLEPHEGLLLRFPYAA",glycan array binding signal (z-score),Gal3S6S(b1-4)GlcNAc6S,-0.868
same,glycan array binding signal (z-score),Gal4S(b1-4)GlcNAc,-0.887
same,glycan array binding signal (z-score),Gal4S6S(b1-4)GlcNAc,0.717
same,glycan array binding signal (z-score),Gal6S(b1-4)Glc,-0.252
same,glycan array binding signal (z-score),Gal6S(b1-4)Glc6S,-0.183
same,glycan array binding signal (z-score),Gal6S(b1-4)GlcNAc,0.291
same,glycan array binding signal (z-score),Gal6S(b1-4)GlcNAc6S,0.094
same,glycan array binding signal (z-score),GalNAc(a1-3)Gal,0.209
same,glycan array binding signal (z-score),GalNAc(a1-3)GalNAc,1.36
same,glycan array binding signal (z-score),GalNAc(b1-3)Gal,-0.631
same,glycan array binding signal (z-score),[1],-0.432
same,glycan array binding signal (z-score),[2],-0.255
same,glycan array binding signal (z-score),GalNAc(b1-3)GalNAc,-0.167
same,glycan array binding signal (z-score),GalNAc(b1-4)GlcNAc,-1.02
same,glycan array binding signal (z-score),[3],-0.271
same,glycan array binding signal (z-score),Glc(a1-4)Glc,-0.079
same,glycan array binding signal (z-score),Glc(a1-6)Glc(a1-6)Glc,0.043
same,glycan array binding signal (z-score),Glc(b1-4)Glc,-1.04
same,glycan array binding signal (z-score),Glc(b1-6)Glc,-1.01
same,glycan array binding signal (z-score),GlcA(b1-3)Gal,-0.532
same,glycan array binding signal (z-score),GlcA(b1-3)GlcNAc,0.213
same,glycan array binding signal (z-score),GlcA(b1-6)Gal,-0.927
same,glycan array binding signal (z-score),[4],1.33
same,glycan array binding signal (z-score),[5],1.05
same,glycan array binding signal (z-score),[6],-1.21
same,glycan array binding signal (z-score),[7],-0.128
same,glycan array binding signal (z-score),[8],0.211
same,glycan array binding signal (z-score),[9],0.598
same,glycan array binding signal (z-score),[10],0.524
same,glycan array binding signal (z-score),[11],-0.386
same,glycan array binding signal (z-score),[12],0.708
same,glycan array binding signal (z-score),[13],-0.52
same,glycan array binding signal (z-score),[14],-0.182
same,glycan array binding signal (z-score),[15],0.356
same,glycan array binding signal (z-score),GlcNAc(b1-3)Gal,-0.42
same,glycan array binding signal (z-score),[16],2.03
same,glycan array binding signal (z-score),GlcNAc(b1-3)Gal(b1-4)Glc,0.852

# Another view of part of the listing above:
binder	measurement	setting	value
4F2hc (Homo sapiens), P08195 (protein) WWHTGALYRIGDLQAFQGHGAGNLAGLKGRLDYLSSLKVKGLVLGPIHKNQKDDVAQTDLLQIDPNFGSKEDFDSLLQSAKKKSIRVILDLTPNYRGENSWFSTQVDTVATKVKDALEFWLQAGVDGFQVRDIENLKDASSFLAEWQNITKGFSEDRLLIAGTNSSDLQQILSLLESNKDLLLTSSYLSDSGSTGEHTKSLVTQYLNATGNRWCSWSLSQARLLTSFLPAQLLRLYQLMLFTLPGTPVFSYGDEIGLDAAALPGQPMEAPVMLWDESSFPDIPGAVSANMTVKGQSEDPGSLLSLFRRLSDQRSKERSLLHGDFHAFSAGPGLFSYIRHWDQNERFLVVLNFGDVGLSAGLQASDLPASASLPAKADLLLSTQPGREEGSPLELERLKLEPHEGLLLRFPYAA	glycan array binding signal (z-score)	Gal6S(b1-4)Glc	-0.252
same	glycan array binding signal (z-score)	Gal6S(b1-4)GlcNAc	0.291
same	glycan array binding signal (z-score)	Gal6S(b1-4)GlcNAc6S	0.094
same	glycan array binding signal (z-score)	[1]	-0.432
same	glycan array binding signal (z-score)	[2]	-0.255
same	glycan array binding signal (z-score)	Glc(b1-4)Glc	-1.04
same	glycan array binding signal (z-score)	[4]	1.33
same	glycan array binding signal (z-score)	[8]	0.211
same	glycan array binding signal (z-score)	[9]	0.598
same	glycan array binding signal (z-score)	[14]	-0.182
same	glycan array binding signal (z-score)	GlcNAc(b1-3)Gal	-0.42
